Patent publication US20130045191A1 (IMMATICS BIOTECHNOLOGIES, published 2013)

B1: UQCRB-001 (peptide)
peptide: YYNAAGFNKL
B2: PPAP2C-001 (peptide)
peptide: AYLVYTDRL
B3: AVL9-001 (peptide)
peptide: FYISPVNKL
B4: NUF2-001 (peptide)
peptide: VYGIRLEHF
B5: ABL1-001 (peptide)
peptide: TYGNLLDYL
B6: MUC6-001 (peptide)
peptide: NYEETFPHI
B7: ASPM-001 (peptide)
peptide: RYLWATVTI
B8: EPHA2-005 (peptide)
peptide: VYFSKSEQL
B9: MMP3-001 (peptide)
peptide: VFIFKGNQF
B10: NUF2-002 (peptide)
peptide: RFLSGIINF
B11: ASPM-002 (peptide)
peptide: SYNPLWLRI
B12: PLK4-001 (peptide)
peptide: QYASRFVQL
B13: ATAD2-002 (peptide)
peptide: KYLTVKDYL
B14: COL12A1-001 (peptide)
peptide: VYNPTPNSL
B15: COL6A3-001 (peptide)
peptide: SYLQAANAL
B16: FANCI-001 (peptide)
peptide: FYQPKIQQF
B17: RPS11-001 (peptide)
peptide: YYKNIGLGF
B18: ATAD2-001 (peptide)
peptide: AYAIIKEEL
B19: ATAD2-003 (peptide)
peptide: LYPEVFEKF
B20: HSP90B1-001 (peptide)
peptide: KYNDTFWKEF
B21: SIAH2-001 (peptide)
peptide: VFDTAIAHLF
B22: UCHL5-001 (peptide)
peptide: NYLPFIMEL
B23: SLC6A6-001 (peptide)
peptide: VYPNWAIGL
B24: IQGAP3-001 (peptide)
peptide: VYKVVGNLL
B25: ERBB3-001 (peptide)
peptide: VYIEKNDKL
B26: KIF2C-001 (peptide)
peptide: IYNGKLFDLL
B27: CCDC88A-001 (peptide)
peptide: QYIDKLNEL
B28: CCNB1-003 (peptide)
peptide: MYMTVSIIDRF
B29: CCND2-001 (peptide)
peptide: RYLPQCSYF
B30: CCNE2-001 (peptide)
peptide: IYAPKLQEF
B31: CEA-010 (peptide)
peptide: IYPDASLLI
B32: CLCN3-001 (peptide)
peptide: VYLLNSTTL
B33: MET-006 (peptide)
peptide: SYIDVLPEF
B34: DNAJC10-001 (peptide)
peptide: IYLEVIHNL
B35: DNAJC10-002 (peptide)
peptide: AYPTVKFYF
B36: EIF2S3-001 (peptide)
peptide: IFSKIVSLF
B37: EIF3L-001 (peptide)
peptide: YYYVGFAYL
B38: EPPK1-001 (peptide)
peptide: RYLEGTSCI
B39: GPR39-001 (peptide)
peptide: SYATLLHVL
B40: ITGB4-001 (peptide)
peptide: DYTIGFGKF
B41: LCN2-001 (peptide)
peptide: SYNVTSVLF
B42: SDHC-001 (peptide)
peptide: SYLELVKSL
B43: PROM1-001 (peptide)
peptide: SYIIDPLNL
B44: PBK-001 (peptide)
peptide: SYQKVIELF
B45: POLD3-001 (peptide)
peptide: LYLENIDEF
B46: TSPAN1-002 (peptide)
peptide: VYTTMAEHF
B47: ZNF598-001 (peptide)
peptide: DYAYLREHF
B48: MMP11-001 (peptide)
peptide: VWSDVTPLTF
B49: MST1R-001 (peptide)
peptide: NYLLYVSNF
B50: NFYB-001 (peptide)
peptide: VYTTSYQQI
B51: SMC4-001 (peptide)
peptide: HYKPTPLYF

Target: T1, HLA A*024 (human)
T1 construct: also called HLA A*024 alleles; HLA-A*24
Assay: HLA immunoprecipitation from tumour tissue, LC-MS (Example 1)

binding, binds:
B1
B2
B3
B4
B5
B6
B7
B8
B9
B10
B11
B12
B13
B14
B15
B16
B17
B18
B19
B20
B21
B22
B23
B24
B25
B26
B27
B28
B29
B30
B31
B32
B33
B34
B35
B36
B37
B38
B39
B40
B41
B42
B43
B44
B45
B46
B47
B48
B49
B50
B51

These are yes or no findings as the source states them, for the method shown. In cells and extracts the contact can be indirect. A result given as binding can be weak or reduced; the word gives no strength.
